Measurements taken from article doi:10.1101/2025.10.03.680331.
No constants are given. Whether binding was seen depends on the method and setting. Binding seen in cells or lysates may run through a third protein. Here binding means that the protein was enriched with, or labelled near, the bait; the list need not be complete. Sequences can lack the tags named with a protein.

T1: GST-tagged mouse GlialCAM cytosolic tail (mouse) (UniProt Q640R3)
T1 sequence: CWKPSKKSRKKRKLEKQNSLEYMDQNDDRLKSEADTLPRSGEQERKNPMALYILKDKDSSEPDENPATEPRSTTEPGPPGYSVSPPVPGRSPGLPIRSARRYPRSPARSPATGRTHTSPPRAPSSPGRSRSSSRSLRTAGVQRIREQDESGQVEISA


Molecular target: T1, GST-tagged mouse GlialCAM cytosolic tail (mouse)
Test: affinity purification with mass spectrometry

Row | binding | Binder
1 | binds | phosphofructokinase muscle type PFKM (protein, UniProt P47857 1-780) MTHEEHHAAKTLGIGKAIAVLTSGGDAQGMNAAVRAVVRVGIFTGARVFFVHEGYQGLVDGGEHIREATWESVSMMLQLGGTVIGSARCKDFREREGRLRAAHNLVKRGITNLCVIGGDGSLTGADTFRSEWSDLLNDLQKDGKITAEEATKSSYLNIVGLVGSIDNDFCGTDMTIGTDSALHRIVEIVDAITTTAQSHQRTFVLEVMGRHCGYLALVTSLSCGADWVFIPECPPDDDWEEHLCRRLSETRTRGSRLNIIIVAEGAIDKNGKPITSEDIKNLVVKRLGYDTRVTVLGHVQRGGTPSAFDRILGSRMGVEAVMALLEGTPDTPACVVSLSGNQAVRLPLMECVQVTKDVTKAMDEKRFDEAIKLRGRSFMNNWEVYKLLAHVRPPVSKGGLHTVAVMNVGAPAAGMNAAVRSTVRIGLIQGNRVLVVHDGFEGLAKGQIEEAGWSYVGGWTGQGGSKLGTKRTLPKKNLEQISANITKFNIQGLVIIGGFEAYTGGLELMEGRKQFDELCIPFVVIPATVSNNVPGSDFSIGADTALNTICTTCDRIKQSAAGTKRRVFIIETMGGYCGYLATMAGLAAGADAAYIFEEPFTIRDLQVNVEHLVQKMKTTVKRGLVLRNEKCNENYTTDFIFNLYSEEGKGIFDSRKNVLGHMQQGGSPTPFDRNFATKMGAKAMNWMSGKIKESYRNGRIFANTPDSGCVLGMRKRALVFQPVTELKDQTDFEHRIPKEQWWLKLRPILKILAKYEIDLDTSDHAHLEHISRKRSGEAAV
2 | binds | sodium-bicarbonate cotransporter Slc4a4 (protein, UniProt O88343 1-1079) MEDEAVLDRGASFLKHVCDEEEVEGHHTIYIGVHVPKSYRRRRRHKRKAGHKEKKEKERISENYSDKSDVENADESSSSILKPLISPAAERIRFILGEEDDSPAPPQLFTELDELLAVDGQEMEWKETARWIKFEEKVEQGGERWSKPHVATLSLHSLFELRTCMEKGSIMLDREASSLPQLVEMIADHQIETGLLKPDLKDKVTYTLLRKHRHQTKKSNLRSLADIGKTVSSASRMFSNPDNGSPAMTHRNLTSSSLNDISDKPEKDQLKNKFMKKLPRDAEASNVLVGEVDFLDTPFIAFVRLQQAVMLGALTEVPVPTRFLFILLGPKGKAKSYHEIGRAIATLMSDEVFHDIAYKAKDRHDLIAGIDEFLDEVIVLPPGEWDPTIRIEPPKSLPSSDKRKNMYSGGENVQMNGDTPHDGGHGGGGHGDCEELQRTGRFCGGLIKDIKRKAPFFASDFYDALNIQALSAILFIYLATVTNAITFGGLLGDATDNMQGVLESFLGTAVSGAIFCLFAGQPLTILSSTGPVLVFERLLFNFSKDHNFDYLEFRLWIGLWSAFMCLVLVATDASFLVQYFTRFTEEGFSSLISFIFIYDAFKKMIKLADYYPINSDFKVGYNTHFSCACLPPDPVNLSVSNDTTLAPEDLPTISSTDMYHNVTFDWAYLSKKECVKYGGKLVGNNCDFVPDITLMSFILFLGTYTSSMAMKKFKTSRYFPTTARKLISDFAIILSILIFCVIDALVGVDTPKLIVPSEFKPTSPNRGWFVPPFGGNPWWVCLAAAIPALLVTILIFMDQQITAVIVNRKEHKLKKGAGYHLDLFWVAILMVVCSFMALPWYVAATVISIAHIDSLKMETETSAPGEQPKFLGVREQRVTGTLVFILTGLSVFMAPILKFIPMPVLYGVFLYMGVASLNGVQFMDRLKLLLMPLKHQPDFIYLRHVPLRRVHLFTFLQVLCLALLWILKSTVAAIIFPVMILALVAVRKGMDYLFSQHDLSFLDDVIPEKDKKKKEDEKKKKKKKGSLDSDNDDSDCPYSEKVPSIKIPMDIMEQQPFLSDNKPLDRERSSTFLERHTSC
3 | binds | FARP1 (protein, UniProt F8VPU2 1-1048) MGEIEQKPTPASRLGAPENSGISTLERGQKPPPTPSGKLMTVKIQMLDDTQEAFEVPQRAPGKVLFDAVCNHLNLVEGDYFGLEFPDHRKIVVWLDLLKPIVKQIRRPKHVVVKFVVKFFPPDHTQLQEELTRYLFALQVKQDLAQGRLTCNDTSAALLISHIVQSEIGDFDEALDREHLAKNKYVPQQDALEDRIMEFHHSHVGQTPAESDFQLLEVARRLEMYGIRLHPAKDREGTKINLAVANTGILVFQGFTKINAFNWAKVRKLSFKRKRFLIKLRPDVNSSYQDTLEFLMAGRDFCKSFWKICVEHHAFFRLFEEPKPKPKPVLFSRGSSFRFSGRTQKQVLDYVKEGGHKKVQFERKHSKIHSTRSLVSQPTAPNSEVPKQSPQSASLTFGEGTESPGGQSCQQAKETKACTLELGPHQSPALPKSPPGSKAADGTTVVPPEEEEEEEGGKDGIRPSNPQPPQPSTGSLTGSPHLSELSINSQGGAAPANVTLSPNLSPDNKQASPLISPLLNDQACPRTDDEEEGRRKRFPTDKAYYIAKEVSTTERTYLKDLEVIASWFQSTVSKEDSMPEALKSLIFPNFEPLHKFHTNFLKEIEQRLALWEGRSNAHVRGDYQRIGDVMLKNIQGMKHLAAHLWKHSEALEALETSIKGSRRLEHFCRDFELQKVCYLPLNTFLLRPLHRLMHYKHVLERLCKHHPPNHADFRDCRAALAEITEMVAQLHGTMIKMENFQKLHELKKDLIGIDNLVTPGREFIRLGSLSKLSGKGLQQRMFFLFNDVLLYTSRGLTASNQFKVHGQLPLYGMTIEESEEEWGVPHCLTLRGQRQSIIVAASSRSEMEKWMEDIQMAIDLAEKSNGPTPELLASSPPDNKSPDEATAADQESEDDLSASRTSLERQAPHRGNTMVHVCWHRSTSVSMVDFSIAVENQLSGNLLRKFKNSNGWQKLWVVFTNFCLFFYKSHQDSHPLASLPLLGYSLTIPSESENIHKDYVFKLHFKSHVYYFRAESEYTFERWMEVIRSATSSASRAHILSHKESHLY
